Data taken from article PMC7162537.
Positions count from the first letter of the chain named. No constants are given. Whether binding was seen depends on the method and setting. In cells and extracts the contact can be indirect. Some results given as binding are weak or reduced against the parent protein; the word gives no strength. For part of these data: Sequences can lack the tags named with a protein.

Amino acid sequences for entries named in this document (tags omitted).
UniProt P54132: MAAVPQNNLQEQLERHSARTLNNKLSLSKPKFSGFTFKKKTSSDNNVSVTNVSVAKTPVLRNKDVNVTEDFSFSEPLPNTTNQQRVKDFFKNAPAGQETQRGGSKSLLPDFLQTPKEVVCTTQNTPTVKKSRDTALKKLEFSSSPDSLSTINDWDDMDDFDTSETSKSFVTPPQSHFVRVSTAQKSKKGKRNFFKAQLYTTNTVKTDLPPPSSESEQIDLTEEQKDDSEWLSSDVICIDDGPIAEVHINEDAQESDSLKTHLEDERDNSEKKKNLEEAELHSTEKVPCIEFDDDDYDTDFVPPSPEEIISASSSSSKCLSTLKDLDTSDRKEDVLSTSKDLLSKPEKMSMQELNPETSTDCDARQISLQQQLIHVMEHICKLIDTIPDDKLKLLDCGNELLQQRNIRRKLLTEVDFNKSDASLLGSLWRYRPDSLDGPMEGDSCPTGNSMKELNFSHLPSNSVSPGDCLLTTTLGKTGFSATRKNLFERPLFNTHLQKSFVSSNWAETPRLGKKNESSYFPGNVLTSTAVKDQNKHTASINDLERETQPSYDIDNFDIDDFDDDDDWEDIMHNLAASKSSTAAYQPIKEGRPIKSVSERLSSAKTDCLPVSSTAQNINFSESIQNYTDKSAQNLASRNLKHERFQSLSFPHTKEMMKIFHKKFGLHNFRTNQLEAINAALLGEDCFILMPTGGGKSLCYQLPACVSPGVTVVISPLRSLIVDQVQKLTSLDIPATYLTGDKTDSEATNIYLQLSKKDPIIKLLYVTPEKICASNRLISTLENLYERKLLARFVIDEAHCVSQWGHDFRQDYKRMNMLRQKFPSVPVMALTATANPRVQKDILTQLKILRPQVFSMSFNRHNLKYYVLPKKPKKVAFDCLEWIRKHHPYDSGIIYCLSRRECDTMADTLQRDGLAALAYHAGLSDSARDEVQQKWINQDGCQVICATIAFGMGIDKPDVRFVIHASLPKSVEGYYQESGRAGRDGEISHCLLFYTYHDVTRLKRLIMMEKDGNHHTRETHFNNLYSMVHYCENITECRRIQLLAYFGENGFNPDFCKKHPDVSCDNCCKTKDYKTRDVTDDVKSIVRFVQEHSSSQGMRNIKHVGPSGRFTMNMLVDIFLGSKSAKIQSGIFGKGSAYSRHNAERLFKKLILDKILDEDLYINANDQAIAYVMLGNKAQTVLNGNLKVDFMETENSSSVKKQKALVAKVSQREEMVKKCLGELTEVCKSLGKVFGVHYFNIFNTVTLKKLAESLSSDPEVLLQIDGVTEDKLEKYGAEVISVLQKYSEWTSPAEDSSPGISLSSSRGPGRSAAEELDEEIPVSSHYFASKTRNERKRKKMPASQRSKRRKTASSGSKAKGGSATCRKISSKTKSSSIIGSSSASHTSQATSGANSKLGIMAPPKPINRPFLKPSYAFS

Experiments:
[1] = biological target: T1, FANCJ K1249R-HA-6xHis (human) (UniProt Q9BX63); assay: co-IP; FANCJ depleted ER-AsiSI U2OS cells expressing shRNA resistant FANCJ-HA-6xHis (WT or mutants), 300 nM 4-OHT for 4 h; nuclear extracts precipitated with antibodies against the HA tag; blots for endogenous partners
T1 sequence: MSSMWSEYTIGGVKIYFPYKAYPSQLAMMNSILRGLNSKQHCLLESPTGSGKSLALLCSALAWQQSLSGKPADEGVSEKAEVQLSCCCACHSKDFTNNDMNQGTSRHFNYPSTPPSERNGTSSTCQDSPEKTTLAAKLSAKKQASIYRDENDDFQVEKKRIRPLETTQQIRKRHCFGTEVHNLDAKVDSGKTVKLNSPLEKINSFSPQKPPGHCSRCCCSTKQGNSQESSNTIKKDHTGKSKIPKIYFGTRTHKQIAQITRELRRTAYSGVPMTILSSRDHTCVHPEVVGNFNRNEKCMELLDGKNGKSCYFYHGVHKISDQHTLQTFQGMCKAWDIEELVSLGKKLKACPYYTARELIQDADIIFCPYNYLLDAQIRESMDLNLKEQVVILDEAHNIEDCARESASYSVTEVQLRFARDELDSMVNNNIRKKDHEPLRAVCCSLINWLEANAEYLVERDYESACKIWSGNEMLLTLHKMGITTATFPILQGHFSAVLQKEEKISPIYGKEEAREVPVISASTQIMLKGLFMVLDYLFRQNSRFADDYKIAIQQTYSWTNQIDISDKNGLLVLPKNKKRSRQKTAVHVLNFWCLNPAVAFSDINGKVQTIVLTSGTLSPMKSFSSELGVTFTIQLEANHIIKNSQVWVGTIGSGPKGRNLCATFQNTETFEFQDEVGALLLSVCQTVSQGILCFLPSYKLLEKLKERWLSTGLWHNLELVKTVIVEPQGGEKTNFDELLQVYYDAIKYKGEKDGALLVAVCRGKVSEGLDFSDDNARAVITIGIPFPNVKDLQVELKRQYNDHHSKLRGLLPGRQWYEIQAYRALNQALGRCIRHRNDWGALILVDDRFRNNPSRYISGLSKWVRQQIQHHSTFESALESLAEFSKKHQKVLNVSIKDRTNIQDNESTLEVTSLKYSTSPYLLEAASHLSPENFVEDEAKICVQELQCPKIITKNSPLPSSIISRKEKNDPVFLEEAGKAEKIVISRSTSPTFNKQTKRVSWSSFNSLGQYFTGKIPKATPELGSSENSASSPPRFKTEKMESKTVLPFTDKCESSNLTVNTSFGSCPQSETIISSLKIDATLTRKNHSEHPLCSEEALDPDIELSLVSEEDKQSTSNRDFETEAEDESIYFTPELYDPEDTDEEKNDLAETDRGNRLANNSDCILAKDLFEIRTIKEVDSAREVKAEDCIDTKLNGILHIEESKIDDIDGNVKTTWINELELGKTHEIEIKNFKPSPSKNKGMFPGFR

[2] = biological target: T2, FANCJ S990A-HA-6xHis (human) (UniProt Q9BX63); assay: as above
T2 sequence: T1 sequence with S990A, R1249K

[3] = biological target: T3, FANCJ helicase (human (endogenous in U2OS)) (UniProt Q9BX63); assay: co-IP; endogenous proteins; nuclear extracts of ER-AsiSI U2OS cells precipitated with antibodies against FANCJ, BRCA1 or CtIP, Protein A/G beads; 300 nM 4-OHT for 4 h (FANCJ IP also before 4-OHT); also in FANCJ depleted or BRCA1 depleted cells; lysis buffer 20 mM Tris-HCl pH 7.5, 100 mM NaCl, 1% NP-40 with Benzonase; 4°C
T3 sequence: T1 sequence with R1249K

Measured: binding

BLM helicase (from UniProt P54132 1-1417)
binds: all assays above
